Reference: paper PMC4639907
These are yes or no findings as the source states them, for the method shown. In cells and extracts the contact can be indirect. Some entries that bind do so weakly or less than the wild type.

Sequences of proteins named here, by UniProt entry; tags and fusion partners are left off.
UniProt P61809: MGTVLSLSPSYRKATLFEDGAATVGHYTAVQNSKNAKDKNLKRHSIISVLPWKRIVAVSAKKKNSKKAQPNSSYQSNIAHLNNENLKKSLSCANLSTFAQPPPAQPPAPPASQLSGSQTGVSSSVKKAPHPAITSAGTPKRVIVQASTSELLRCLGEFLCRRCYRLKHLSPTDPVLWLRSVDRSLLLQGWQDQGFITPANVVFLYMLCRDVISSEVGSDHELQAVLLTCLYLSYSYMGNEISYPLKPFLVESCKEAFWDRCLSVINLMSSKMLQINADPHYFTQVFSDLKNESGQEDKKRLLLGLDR

Target: p35, the activator of cyclin-dependent kinase 5 (Cdk5) (mouse (endogenous in hippocampus)) (UniProt P61809)
Assay: co-IP; hippocampal lysates of 3-month-old mice immunoprecipitated with p35 or PJA2 antibodies (IgG as control), western blot of the co-immunoprecipitates

- binding: binds
B1: E3 ubiquitin ligase Praja-2 (PJA2) (protein, UniProt Q80U04 1-707)
chain: MSQYTEKEPSVMDQESSKAAWPKPAGGYQTITGRRYGRRHAYVSFKPCMTRHERSLGRAGDDYEVLELDDVPKENTSGSSSLDQVHPALPNEPTVEKSETEISTCGPALNQSTESSPSIATVCHSEEVRETLESNTNLHNRTETEHTPAVCNVSSVQNGIMLVHTDSYDPDSKHDENGSLQLGAEAVEGGRHQKGLGRAVFELENGEAEIYADLSPSVPSLNGEISEAFEELDSAPLEKSSTADAELVHQNGQEFQRSSEDGVVRKRRQDDTDQGRQTENSTEDADCAPGHVEQNTSDRANHHGSSPEQVVRPKVRKVISSSQVDQEIGFNRHEAKQRSVQRWREALEVEECSSDDPIIKCDDYDGDHDCMFLTPTYSRVTQRETERNRVTSENGATASGRQESRDNAFWNACGEYYQLFDKDEDSSECSDGEWSASLPHRFSGTEKDQSSSDDSWETLPGKDENDPELQSDSSGPEEENQELSLQEGEQTSLEEGEIPWLQYNEVNESSSDEGNEPANEFAQPEAFMLDGNNNLEDDSSVSEDLDVDWSLFDGFADGLGVAEAISYVDPQFLTYMALEERLAQAMETALAHLESLAVDVEVANPPASKESIDGLPETLVLEDHTAIGQEQCCPICCSEYIKDDIATELPCHHFFHKPCVSIWLQKSGTCPVCRRHFPPAVIDASAAASSDPDPDASPANDNAEEAP
